Reference: the supplement of paper PMC10331698
± gives the standard deviation of the averaged measurements. Most values lie at the level of the controls, where differences are scatter.

Tests used:
Experiment in all cases: level (log10 ratio to DMSO vehicle control); higher = higher biomarker level / cell amount than vehicle control
[1] = compound: O=S(=O)(O)C(F)(F)C(F)(F)C(F)(F)C(F)(F)C(F)(F)C(F)(F)C(F)(F)C(F)(F)F [Potassium perfluorooctanesulfonate]; conditions: 2200 nM; in DMSO
Procedure: (§1)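 BioMAP Diversity Plus panel of 12 human primary cell co-culture systems (3C, 4H, LPS, SAg, BT, BF4T, BE3C, CASM3C, HDF3CGF, KF3CT, MyoF, Mphg). Compounds were added 1 h before stimulation and left for 24 h (MyoF 48 h; BT 72 h for soluble read-outs or 6 d for IgG). Biomarkers were read by ELISA, cytotoxicity by SRB, PBMC viability and proliferation by Alamar Blue. Each well value was divided by the mean of 8 DMSO control wells on the same plate and log10 transformed; duplicate blinded samples were tested at 4 concentrations.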

[2] = compound: NS(=O)(=O)C(F)(F)C(F)(F)C(F)(F)C(F)(F)C(F)(F)C(F)(F)C(F)(F)C(F)(F)F [Perfluorooctanesulfonamide]; conditions: in DMSO
Procedure: as §1

[3] = compound: C=C(C)C(=O)OCC(F)(F)C(F)(F)C(F)(F)C(F)(F)C(F)(F)C(F)(F)C(F)(F)F; conditions: in DMSO
Procedure: as §1

[4] = compound: COC(=O)C(F)(F)C(F)(F)OC(F)(C(F)(F)F)C(F)(F)OC(F)=C(F)F [Methyl perfluoro(3-(1-ethenyloxypropan-2-yloxy)propanoate)]; conditions: in DMSO
Procedure: as §1

Pentafluoropropionamide = compound: NC(=O)C(F)(F)C(F)(F)F [Pentafluoropropionamide]; conditions: 2200 nM; in DMSO
Procedure: as §1

Heptafluorobutyl iodide = compound: FC(F)(F)C(F)(F)C(F)(F)CI [Heptafluorobutyl iodide]; conditions: 2200 nM; in DMSO
Procedure: as §1

[5] = compound: O=S(=O)(OCC(F)(F)F)C(F)(F)C(F)(F)C(F)(F)C(F)(F)F [2,2,2-Trifluoroethyl perfluorobutanesulfonate]; conditions: 2200 nM; in DMSO
Procedure: as §1

[6] = compound: C=CC(=O)OCC(F)(F)C(F)(F)C(F)(F)C(F)(F)C(F)(F)C(F)(F)C(F)(F)F [1H,1H-Perfluorooctyl acrylate]; conditions: 2200 nM; in DMSO
Procedure: as §1

[7] = compound: NC(=O)C(F)(F)C(F)(F)C(F)(F)C(F)F; conditions: in DMSO
Procedure: as §1

[8] = compound: O=C(O)C(F)(F)C(F)(F)C(F)F [4H-Perfluorobutanoic acid]; conditions: in DMSO
Procedure: as §1

[9] = compound: O=S(=O)(F)C(F)(F)C(F)(F)C(F)(F)C(F)(F)C(F)(F)C(F)(F)C(F)(F)C(F)(F)F [Perfluorooctanesulfonyl fluoride]; conditions: 2200 nM; in DMSO
Procedure: as §1

[10] = compound: O=S(=O)(O)C(F)(F)C(F)(F)C(F)(F)C(F)(F)C(F)(F)C(F)(F)C(F)(F)C(F)(F)F [Perfluorooctanesulfonic acid]; conditions: 2200 nM; in DMSO
Procedure: as §1

[11] = compound: C=CC(F)(F)C(F)(F)C(F)(F)C(F)(F)C(F)(F)C(F)(F)C(F)(F)C(F)(F)C=C [1,8-Divinylperfluorooctane]; conditions: in DMSO
Procedure: as §1

[12] = compound: OCC(F)(F)C(F)(F)C(F)(F)C(F)(F)C(F)(F)C(F)F [1H,1H,7H-Dodecafluoro-1-heptanol]; conditions: 2200 nM; in DMSO
Procedure: as §1

[13] = compound: CO[Si](C)(CCC(F)(F)C(F)(F)C(F)(F)C(F)(F)C(F)(F)C(F)(F)F)OC [Dimethoxymethyl((perfluorohexyl)ethyl)silane]; conditions: in DMSO
Procedure: as §1

[14] = compound: FC(F)(F)C(F)(F)C(F)(F)CC1CO1 [1H,1H-Heptafluorobutyl epoxide]; conditions: 2200 nM; in DMSO
Procedure: as §1

[15] = compound: OCCCCC(F)(F)C(F)(F)C(F)(F)C(F)(F)F [4:4 Fluorotelomer alcohol]; conditions: 2200 nM; in DMSO
Procedure: as §1

[16] = compound: O=P(O)(O)CCC(F)(F)C(F)(F)C(F)(F)C(F)(F)C(F)(F)C(F)(F)F [2-(Perfluorohexyl)ethylphosphonic acid]; conditions: 2200 nM; in DMSO
Procedure: as §1

Row | Test System | level (log10) [1] | level (log10) ([2]; 2200 nM) | level (log10) ([2]; 6700 nM) | level (log10) ([2]; 20000 nM) | level (log10) ([3]; 740 nM) | level (log10) ([3]; 2200 nM) | level (log10) ([4]; 740 nM) | level (log10) ([4]; 2200 nM) | level (log10) (Pentafluoropropionamide) | level (log10) (Heptafluorobutyl iodide) | level (log10) [5] | level (log10) [6] | level (log10) ([7]; 2200 nM) | level (log10) ([7]; 6700 nM) | level (log10) ([7]; 20000 nM) | level (log10) ([7]; 60000 nM) | level (log10) ([8]; 2200 nM) | level (log10) ([8]; 6700 nM) | level (log10) ([8]; 20000 nM) | level (log10) ([8]; 60000 nM) | level (log10) [9] | level (log10) [10] | level (log10) ([11]; 740 nM) | level (log10) ([11]; 2200 nM) | level (log10) [12] | level (log10) ([13]; 740 nM) | level (log10) ([13]; 2200 nM) | level (log10) [14] | level (log10) [15] | level (log10) [16]
1 | lMphg:CD69 | 0.002 ± 0.079 | -0.022 ± 0.037 | -0.0435 ± 0.052 | -0.11 ± 0.037 | 0.0065 ± 0.023 | -0.0185 ± 0.018 | 0.025 ± 0.0057 | -0.042 ± 0.042 | 0.018 ± 0.027 | -0.039 ± 0.014 | -0.026 ± 0.018 | -0.009 ± 0.021 | 0.0095 ± 0.042 | 0.0265 ± 0.018 | -0.015 ± 0.0071 | -0.0115 ± 0.0078 | 0.02 ± 0.03 | 0.0185 ± 0.032 | -0.0175 ± 0.0021 | 0.0095 ± 0.019 | -0.0265 ± 0.036 | 0.009 ± 0.033 | 0.0255 ± 0.016 | -0.011 ± 0.028 | 0.0165 ± 0.086 | -0.0335 ± 0.049 | -0.012 ± 0.047 | -0.004 ± 0.045 | -0.0005 ± 0.036 | -0.008 ± 0.075
2 | HDF3CGF:PAI-I | 0.0185 ± 0.005 | 0.0185 ± 0.016 | 0.005 ± 0.033 | -0.45 ± 0.26 | 0.008 ± 0.055 | -0.0085 ± 0.025 | 0.028 ± 0.028 | 0.054 ± 0.0085 | 0.0065 ± 0.052 | 0.0165 ± 0.056 | -0.004 ± 0.018 | 0.0565 ± 0.087 | -0.008 ± 0.045 | -0.012 ± 0.011 | -0.016 ± 0.0099 | 0 ± 0.038 | -0.018 ± 0.071 | -0.021 ± 0.12 | 0.0115 ± 0.1 | 0.03 ± 0.069 | -0.027 ± 0.05 | 0.0165 ± 0.0078 | 0.0025 ± 0.046 | 0.0065 ± 0.033 | 0.0075 ± 0.012 | 0.0025 ± 0.032 | -0.0145 ± 0.00071 | -0.001 ± 0.023 | 0.011 ± 0.018 | -0.002 ± 0.042
3 | HDF3CGF:CXCL11/I-TAC | -0.0005 ± 0.0078 | -0.079 ± 0.0028 | -0.111 ± 0.013 | -0.492 ± 0.028 | -0.031 ± 0.013 | 0.0055 ± 0.011 | -0.004 ± 0.0014 | -0.055 ± 0.0028 | -0.006 ± 0.018 | -0.0565 ± 0.083 | 0.0085 ± 0.022 | -0.012 ± 0.058 | -0.0115 ± 0.023 | -0.0035 ± 0.016 | -0.002 ± 0.013 | -0.002 ± 0.027 | -0.006 ± 0.035 | -0.0155 ± 0.071 | 0.003 ± 0.0071 | 0.0125 ± 0.0035 | -0.018 | -0.01 ± 0.0085 | -0.02 ± 0.014 | -0.0105 ± 0.012 | 0.0065 ± 0.042 | -0.026 ± 0.055 | -0.006 ± 0.035 | -0.01 ± 0.017 | 0.0085 ± 0.023 | 0.0045 ± 0.03
4 | HDF3CGF:MMP-1 | -0.0015 ± 0.0092 | -0.004 ± 0.018 | 0.0145 ± 0.026 | -0.206 ± 0.096 | 0.002 ± 0.0085 | 0.002 ± 0.0014 | -0.0205 ± 0.032 | 0.015 ± 0.0057 | -0.004 ± 0.024 | -0.018 ± 0.04 | 0.005 ± 0.0014 | 0.0315 ± 0.016 | -0.007 ± 0.0071 | 0.0005 ± 0.00071 | -0.006 ± 0.0042 | 0.003 ± 0.0071 | 0.007 ± 0.0099 | 0.0005 ± 0.0021 | -0.0025 ± 0.0035 | 0.0075 ± 0.021 | 0.005 ± 0.0042 | -0.0085 ± 0.0078 | -0.008 ± 0.028 | 0.0005 ± 0.025 | 0.0175 ± 0.0092 | -0.0015 ± 0.03 | 0.0055 ± 0.035 | 0.0275 ± 0.005 | 0 ± 0.0071 | -0.0145 ± 0.005
